Key:
[1] = general procedure: Fmoc solid-phase peptide synthesis; NovaSyn TGA; conditions: whole synthesis
[2] = general procedure: Fmoc solid-phase peptide synthesis; NovasynTG

Substance: AcYGKDVKDLFDYAQE(SEQ ID NO:1)-TEG-K(SATA)-OH
- isolated yield [1]: 27.1%

Substance: HS(CH2)2CO-YGKDVKDLFDYAQE(SEQ ID NO:1)-TEG-K(SATA)-OH
- crude mass ([2]; whole synthesis, scale 46 μmol): 40 mg
- crude yield ([2]; whole synthesis, scale 46 μmol): 41%
- isolated mass ([2]; whole synthesis, scale 46 μmol): 24 mg
- isolated yield ([2]; whole synthesis, scale 46 μmol): 24%

Substance: βMan3-S(CH2)2CO-YGKDVKDLFDYAQE(SEQ ID NO:1)-TEG-K(SATA)-OH
- conjugation yield ([2]; conjugation step): 69%
